# According to the supplement of paper PMC5949888:
# Most values lie at the floor of the assay. Slopes are relative: functional sequences can read slightly below zero.
# System: Saccharomyces cerevisiae PS128 hsf1 delta, HSF1(1-493) fusion
# Assay: growth estimate (transactivation domain function in HSF1 fusion, heat-shock survival) (a.u. (slope of normalised read count over time)); higher = stronger growth at 37°C, i.e. more transactivation activity
# Details: library: random library
row,Substance,growth estimate
1,CGTLVMNTATLLGNACGLTH,< -0.25
2,ATKPENLEVRREGSGSSSLL,< -0.25
3,RSRKN,< -0.25
4,SNVMPLAKVPRVNVKCVKAS,< -0.25
5,RLALP,< -0.25
6,FSVKSG,< -0.25
7,VEASCSHPDGGLGGDRIVQQ,< -0.25
8,HSRVLPDARIRILRGV,< -0.25
9,SRKMLKQVRASRCVDGV,< -0.25
10,RIGIRMEGISHPIRYLHPIE,< -0.25
11,GRPTNV,< -0.25
12,RHDRYGLVRFSGGEARCLGN,< -0.25
13,WRRTTKLSNFSPDTTGADGH,< -0.25
14,FVRLLKRIYEAGGRRGKRGS,< -0.25
15,TLHRENRQSLRPS,-0.243
16,RRFSTTGLYGEHYGSNHFLR,< -0.25
17,WQLRSSAEILPSTKAYSAIG,< -0.25
18,DIVFATPRGKVALNTGVTVL,< -0.25
19,STDLGSKIKHASD,< -0.25
20,LKAVLLLLYRGSSHILSPRP,< -0.25
21,TGPRTTVIAQFSGTQPG,< -0.25
22,VRGSIHCQKQSNYEFVGPRW,< -0.25
23,LSIDSLLTVGSCFQMSTQTC,< -0.25
24,EVLL,-0.153
25,PCLND,< -0.25

row,Substance,growth estimate
1,VYDIEP,< -0.25
2,GIGSLWGCLACAGPTLLLSV,< -0.25
3,PVLRELSLRITRPCPLSLRR,< -0.25
4,YCT,< -0.25
5,YAKVGLRPALRSFGLYHWPI,< -0.25
6,VQCANGGPRVEGGDGGASYM,< -0.25
7,LGGYTGKDLSVQWIWTVWAY,< -0.25
8,KSHGRPVDWYVTGREEGVDV,< -0.25
9,ACM,< -0.25
10,SSHHMTALRAHFLKTLSIRQ,< -0.25
11,QEGVGMTILNSMVVAPPRCT,< -0.25
12,EGQDYCSTAGTCI,-0.245
13,LIGDTRDEVVSALTSIVDGS,< -0.25
14,FQFDYSAGPVGESS,< -0.25
15,TKGYPTLMKRMRIVAVVSHA,< -0.25
16,SAGGSSMTVCNLGTPARLCL,< -0.25
17,PKRNTCP,< -0.25
18,GCTVGPGAPHRRAATNGRRQ,< -0.25
19,RWK,-0.167
20,GCGLFAAS,< -0.25
21,LAWLKSRAVRGFGLTETPLQ,< -0.25
22,REHGSRICEASDS,< -0.25
23,VRLRGTRTTCGRA,< -0.25
24,CIGPEAPGYFNLGAMAPVHS,< -0.25
25,AQYYPLGQKLDLRVPHFNPS,< -0.25

row,Substance,growth estimate
1,ARVNDKE,< -0.25
2,CWFLQFSVNCRRSVDASHTT,< -0.25
3,TVGSLVQAKSGVGIRIALHS,< -0.25
4,CCVDTGVETSREQSARIISG,-0.245
5,VTRVFAADLITFKRPSERDR,< -0.25
6,KLDISVLVPPSYRSRCVRKS,< -0.25
7,RARR,< -0.25
8,INRSVS,< -0.25
9,DIR,< -0.25
10,LISLQQ,< -0.25
11,TWPLA,-0.231
12,YVSLRRACVNTFNSAQA,< -0.25
13,ALLRIQAADSG,< -0.25
14,MGFGEIAGLW,< -0.25
15,SLRSWHNTDKWKFFSG,< -0.25
16,IIRYSSQKHRYGSGRVVSPE,< -0.25
17,SVCGEFTASRLVGRPHA,< -0.25
18,NYECLDGIRGTFKPRRGS,< -0.25
19,VQRVWGGGRSGSVTRPMSVA,0.249
20,LQKLSSVGVYP,< -0.25
21,NICIGGYELCPWAEETQARL,< -0.25
22,RNKSR,< -0.25
23,GRRKELILQGTVATMSGSSP,< -0.25
24,WSLLALVVPAAFS,< -0.25
25,HMVI,< -0.25

# Rewritten with tabs: part of the list above.
row	Substance	growth estimate
2	CWFLQFSVNCRRSVDASHTT	< -0.25
3	TVGSLVQAKSGVGIRIALHS	< -0.25
4	CCVDTGVETSREQSARIISG	-0.245

# (cont.)

row,Substance,growth estimate
1,TIAFGRLDHIVSADNWYDQC,< -0.25
2,RSKCVQVKLVMSRVGVGRIF,< -0.25
3,RPGGTRATSSSLI,< -0.25
4,SVRHKRSLFGYARTGLTLKR,< -0.25
5,NGTPSRYSPW,< -0.25
6,KQQKVSNAALPPHSYLYHTS,< -0.25
7,REHDAVRSHWEQRNRND,< -0.25
8,LVVLSASADRYRIHCRAMLR,< -0.25
9,DAGLSAGPS,< -0.25
10,REGGPSELARRQSPVFGLRK,< -0.25
11,HGRPRKLGNWVTRVVRLLLI,< -0.25
12,ATDQGSNWM,< -0.25
13,DFRWRMNCALGATVFYRVSG,< -0.25
14,RILAMPNLGTHNFDR,< -0.25
15,RLVAVREPAFARHRAHVTRV,< -0.25
16,KHKVPQEVGHGCRFSVGHPR,< -0.25
17,LVGPTATALQDESLFSEQRV,< -0.25
18,GDWDSTPVRSGDSHMYVDRK,< -0.25
19,HWAAISTTIRIPACSERAAG,< -0.25
20,IFTPRILRAAPSNSLVTYDR,< -0.25
21,AYSVEALTATISAPFSLNSG,< -0.25
22,PKGSE,< -0.25
23,ASYCVPLVLHVRGDSDRPSR,< -0.25
24,GEGRREYSFGEEKYV,< -0.25
25,SCLFGLLDVHEGFPPESKSV,< -0.25

# Given bar-delimited: entries from further up
row | Substance | growth estimate
25 | PCLND | < -0.25
1 | VYDIEP | < -0.25
2 | GIGSLWGCLACAGPTLLLSV | < -0.25

# The listing continues.

row,Substance,growth estimate
1,HLMRETLAALALPDDRIERC,< -0.25
2,QPKPWGLPHDKFKIVIVMRR,< -0.25
3,RVTQWISHCEGVP,< -0.25
4,SIV,< -0.25
5,TSAPCLRIRWPGTNLNLAYK,< -0.25
6,GLSFVVRDDSRSTGAVGS,< -0.25
7,RSCPTFIV,< -0.25
8,TQWPRDNLR,< -0.25
9,LPVEGRGGCWNPVFIMTETG,< -0.25
10,ILVCKRGGVVKSRKLSSGPG,< -0.25
11,SGRRPNLSLGQGSQGS,< -0.25
12,GMVLGRDRKLLVIWSYRFGP,< -0.25
13,DGGVAADAYMTRADV,< -0.25
14,SRFLAYWSVERF,-0.0727
15,VLVPLKGLQSGRLVQDEFHL,< -0.25
16,RLEGATRQYV,< -0.25
17,YMESILSGIFIGVGNIQLRF,< -0.25
18,RPIVVRMRP,< -0.25
19,VVWSVRGARALRSAGNLAAR,< -0.25
20,GSGEKPMGHPGPTTLRV,-0.131
21,VTRAQDLRTTEMWFIRPFAI,< -0.25
22,NSWM,< -0.25
23,SSRGVTK,< -0.25
24,GCYRVG,< -0.25
25,TKYRN,< -0.25

row,Substance,growth estimate
1,IWMRPEFVLSMWMRNIEVRA,< -0.25
2,HSRYRV,< -0.25
3,SPSLRRLIYLSNT,< -0.25
4,GRDEHGGK,< -0.25
5,QDSGPIAEQSEH,< -0.25
6,NAKCRQCLYTFRPGGS,< -0.25
7,YCLTRSQSSWLRGGLSAVSM,< -0.25
8,PHQTQEVCACPLGGNRGSER,< -0.25
9,VIVLAYDSYS,< -0.25
10,ELGCCRRSSPRIYCARVVGF,< -0.25
11,QLQECIKGYKPEKTCSPVQR,< -0.25
12,ADKKLRDSLSTKRLHQPRVV,< -0.25
13,KQWWGRGYAKQGLPGT,< -0.25
14,PSLV,< -0.25
15,CGKNESICVLRSTRAGGQ,< -0.25
16,LPLAP,< -0.25
17,PRRIAH,< -0.25
18,GQLFRACWVSFPNHRMPTSY,< -0.25
19,LAPYIADFCSG,< -0.25
20,PRTNVVPKPRNCLGADL,< -0.25
21,CTSGDGTLDKVFQKANDGCA,< -0.25
22,GPARSPKPPFPPASRRVNVL,< -0.25
23,LRCGSATTLKITLGP,< -0.25
24,SPISSDL,< -0.25
25,KARTGFRVAPKAPVRVGYSA,< -0.25

row,Substance,growth estimate
1,EGAEGCCHGVETYTANHCLR,< -0.25
2,WQLLLDTSKFMALQHTVVWW,< -0.25
3,SASAFHMGGG,< -0.25
4,MSGATAVDTVRERCSRIRKH,< -0.25
5,LVAGVGGGVLVWCGKSPQDV,< -0.25
6,TGSGNTKR,< -0.25
7,SCLCRAGPLGMESLTCSASL,< -0.25
8,RVRGRLGVWEGTVLTSWF,< -0.25
9,HVT,< -0.25
10,IAGGP,< -0.25
11,TTTPSLGYRPARTIQRPREH,< -0.25
12,RDADEAGRHLNRVSL,< -0.25
13,FAPNHNGPILRGVHLISVQL,< -0.25
14,QLRVLVCEERRNIPACDNIG,< -0.25
15,MRWSRAQWRSLHQ,< -0.25
16,RFCPKEASCNYYNRKVRQDR,< -0.25
17,PYGRIHSYITPGGGLWPVRR,< -0.25
18,SWAMYTTNSTPKAVVTMSTS,< -0.25
19,HVQY,< -0.25
20,SGAGYRGYFNAAKCT,< -0.25
21,RDMYLQ,< -0.25
22,RQMPRGERGFMNLTWSASER,-0.245
23,GESTPWFRCQSREC,-0.246
24,IWLPT,< -0.25
25,LEVHGRFPIGSCGSIPFTVV,< -0.25

row,Substance,growth estimate
1,EEIGSEFRTFGQWLLISQQI,< -0.25
2,GSSSSR,< -0.25
3,NCFEYH,< -0.25
4,DKLLSGSGIQGPVLPG,< -0.25
5,CLGPLPAVSRFRVSDAQPGL,< -0.25
6,RKRMFGPSILIPMRY,< -0.25
7,LSSRTSSVTPLVRWDGNVLK,< -0.25
8,STKVENWGAGSEYTLFCLVS,< -0.25
9,DVGGLLRRRRAGDSLSRGGW,< -0.25
10,ELVS,< -0.25
11,GVVLRADSGIVSF,< -0.25
12,CTICIAIARARRPLYTETFF,< -0.25
13,FGFACLSGMNWP,< -0.25
14,LRSMILLCTDADQRCYETAS,< -0.25
15,THQRGCNRQVPGRIQSLW,< -0.25
16,GSPAA,< -0.25
17,HAWTT,< -0.25
18,ALANQLLH,< -0.25
19,PCTVLMTF,< -0.25
20,HARTSRDHLAVRAGTCSL,< -0.25
21,LAFNSYAF,< -0.25
22,ILLLH,< -0.25
23,AGKLGGPRN,< -0.25
